Data: the supplement of paper PMC7824004
Some of the results follow. The data scatter; read single values as rough.

Tested on: Candida albicans SN425
Experiment: biofilm OD600 B-score; higher = more biofilm (less inhibition)
Settings: 10 µM; assay detail: High-throughput adherence inhibition optical density biofilm assay with C. albicans SN425 in RPMI-1640/MOPS pH 7.0, 384-well plates. …
Method: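 High-throughput adherence inhibition optical density biofilm assay with C. albicans SN425 in RPMI-1640/MOPS pH 7.0, 384-well plates. Compound (10 µM) was present only during the 90 min adherence step, then washed out, and the biofilm grew 24 h without compound. Biofilm was read as OD600 after removing the media. Scores are the difference from the mean in standard deviations and the plate B-score.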

Row | SMILES | biofilm OD600 B-score
1 | CCOc1ccc(NC(=O)Nc2ccc3snnc3c2)cc1 | -3.26
2 | NC(=O)Cn1cnc(-c2ccc(Cl)cc2)c1 | 0.931
3 | CCOC(=O)N1CC(C)N(C(=O)OCC)CC1C (stereo not given) | -1.51
4 | O=C1c2ccccc2-c2c1cccc2C(=O)N(CCO)CCO | -0.905
5 | COc1ccc(NC(=O)c2ccc(C)o2)c(OC)c1 | 1.49
6 | Clc1ccc(OCCn2ccnc2)c(Br)c1 | 1.27
7 | N#CCCn1[nH]c(-c2ccccc2)cc1=O | 1.83
8 | Cc1cccc(NC(=O)c2ccccc2Cl)c1C(=O)O | -0.251
9 | c1ccc(N2CCN(c3cc(-n4cccn4)ncn3)CC2)cc1 | 0.272
10 | CC(C)(C)C(=O)Nc1cccc(C(=O)NN)c1 | -0.0436
11 | CCOC(=O)Nc1cccc(Nc2ccccc2)c1 | 1.76
12 | O=C(NC(c1ccccc1)c1ccccc1)c1ccoc1 | 0.167
13 | CSc1cccc(NS(=O)(=O)c2ccc(C)cc2)c1 | 3.4
14 | CCN(CC)C(=O)C1CCCN(Cc2cccc(OC)c2)C1 (stereo not given) | 0.36
15 | CN1CCN(c2nc(/C=C/c3ccccc3)nc3ccccc23)CC1 | 2.14
16 | CCn1c(=O)cc(O)c2ccccc21 | 1.75
17 | O=C(O)c1cccc(NS(=O)(=O)c2ccccc2)c1 | -1.02
18 | O=C(Nc1ccc(Cl)c(Cl)c1)c1cnccn1 | -0.809
19 | COc1ccc(C(=O)Nc2ccc3c(c2)OCCO3)cc1OC | 2.28
20 | OC1CCN(CC2CC=CCC2)CC1 (stereo not given) | 0.352

Excerpt: entries 2–3
Row | SMILES | biofilm OD600 B-score
2 | NC(=O)Cn1cnc(-c2ccc(Cl)cc2)c1 | 0.931
3 | CCOC(=O)N1CC(C)N(C(=O)OCC)CC1C (stereo not given) | -1.51

(next part)

Row | SMILES | biofilm OD600 B-score
21 | COc1ccccc1NC(=O)CCN1CCCCCC1 | -0.174
22 | CC(C)C(=O)Nc1c2c(nc3ccccc13)N(C)CC2 | -0.131
23 | COc1ccccc1NC(=O)Nc1ccccc1 | 0.45
24 | COc1ccc(OC)c(Nc2nc(C)c(C(C)=O)s2)c1 | 0.0486
25 | O=C(NCCc1ccccc1)c1cnccn1 | -1
26 | Cc1cc(C)c(S(=O)(=O)N2CCOCC2)c(C)c1 | 0.101
27 | Cc1cc(C)c(S(=O)(=O)Nc2ncccc2C)c(C)c1 | 1.84
28 | COc1cc(C)c(S(=O)(=O)NCCN2CCOCC2)cc1C | -1.67
29 | O=C(Nc1ccccc1)Nc1ccccc1Cl | 4.48
30 | O=C(c1cc(Br)ccc1Cl)N1CCN(c2ncccn2)CC1 | -0.661
31 | Cc1ccc(C)c(S(=O)(=O)Nc2ccccc2Cl)c1 | 2.74
32 | COc1ccc(-c2nnn(Cc3ccccc3F)n2)cc1 | 0.297
33 | Cc1ccc(C)c(CNc2ccc3[nH]ncc3c2)c1 | -2.87
34 | COc1ccc(N2CCN(C(=O)C3COc4ccccc4O3)CC2)cc1 (stereo not given) | 0.92
35 | Brc1ccc(CN2CCc3ccccc3C2)o1 | -0.342
36 | O=C(O)C1C2C=CC(O2)C1C(=O)Nc1ccc2c(c1)OCO2 (stereo not given) | -2.41
37 | NS(=O)(=O)c1ccc(NC(=O)c2ccco2)cc1 | 2.2
38 | O=C(c1ccc(S(=O)(=O)c2ccccc2)cc1)N1CCOCC1 | 0.17
39 | Cc1ccc(C(=O)Nc2ccc(Cl)cc2F)o1 | 0.0144
40 | C=CCOc1ccccc1CN1CCN(c2ccccn2)CC1 | -3.81
